# In PubChem BioAssay AID1532 (PCMD, 2009):
# Some of the results follow.
# System: RmlC (dTDP-4-dehydrorhamnose 3,5-epimerase) and RmlD (dTDP-4-dehydrorhamnose reductase), coupled enzyme assay
# Assay: RmlC and RmlD coupled enzyme inhibitors, primary screen, biochemical, 384-well, compound mixtures, retest (AID 1532)
# Settings: 384-well mixture HTS, measured here: mean retest inhibition, at 5.5 µM, stronger effect = higher value
row,SMILES,inhibition
1,O=P(Nc1nccs1)(c1ccccc1)c1nc2ccccc2s1 (stereo not drawn),32.7%
2,CN(C)CCOC(=O)C(O)(c1ccccc1)C1CCCC1 (stereo not drawn),-7.37%
3,CCc1ccc(OP(C)(=O)O)cc1,-1.87%
